Data from US7132553B2, “Product comprising an inhibitor of the transduction of heterotrimeric G protein signals combined with an anti-hypertensive agent for therapeutic use in the treatment of arterial hypertension” (Societe de Conseils de Recherches et d'Applications …, priority 2000, dated 2006).
Some entries share one result that the patent states for a list of compounds. At least one compound was matched to its structure with a doubt left.

Test system: spontaneously hypertensive rats (SHR)
Experiment: Arterial pressure in anaesthetized spontaneously hypertensive rats (carotid catheter)
Format: in vivo
Settings: SHR rat, single intravenous injection; verapamil 0.1 or 0.3 mg/kg, captopril 1 mg/kg, G protein inhibitor 1 mg/kg
Protocol: 13/14 week old male SHR rats (Charles River France) are anaesthetized using pentobarbital (Sanofi) (60 mg/kg/IP). […] After a stabilization period of 10 minutes, the product or two products simultaneously are administered and their effects are monitored for 20 minutes.
For administration purposes, 7-(2-amino-1-oxo-3-thiopropyl)-8-(cyclohexylmethyl)-2-phenyl-5,6,7,8-tetrahydro-imidazo[1,2a]pyrazine, verapamil (Sigma, USA) and captopril (Sigma, USA) can be dissolved in an aqueous solution of NaCl at 0.9%.

SMILES | time to reduction in arterial pressure
C[C@H](CS)C(=O)N1CCC[C@H]1C(=O)O [Captopril, captopril] | less than 2 minutes
NC(CS)C(=O)N1CCn2cc(-c3ccccc3)nc2C1CC1CCCCC1 (centres unmarked) [Compound 2, 7-(2-amino-1-oxo-3-thiopropyl)-8-(cyclohexylmethyl)-2-phenyl-5,6,7,8-tetrahydroimidazo[1,2a]pyrazine] | less than 2 minutes
